# In all, about 580,000 compounds went through this assay and about 6,100 (1.1%) were called active. Inconclusive means that the source gave no clear call. Such entries were picked first, then a sample of the others. The call rests on the fitted dose curve; in most records, active means well fitted inhibition curve with a large enough effect; inconclusive means small, poorly fitted or top-dose-only effect, or another doubt; inactive means no such curve, though single readings can be large or run the other way. Potencies beside an inconclusive call are fits to weak or partial responses and may not hold up.
# By UniProt entry, the sequences of proteins in these tests, tags left out.
# UniProt P18054, whole entry, looked up: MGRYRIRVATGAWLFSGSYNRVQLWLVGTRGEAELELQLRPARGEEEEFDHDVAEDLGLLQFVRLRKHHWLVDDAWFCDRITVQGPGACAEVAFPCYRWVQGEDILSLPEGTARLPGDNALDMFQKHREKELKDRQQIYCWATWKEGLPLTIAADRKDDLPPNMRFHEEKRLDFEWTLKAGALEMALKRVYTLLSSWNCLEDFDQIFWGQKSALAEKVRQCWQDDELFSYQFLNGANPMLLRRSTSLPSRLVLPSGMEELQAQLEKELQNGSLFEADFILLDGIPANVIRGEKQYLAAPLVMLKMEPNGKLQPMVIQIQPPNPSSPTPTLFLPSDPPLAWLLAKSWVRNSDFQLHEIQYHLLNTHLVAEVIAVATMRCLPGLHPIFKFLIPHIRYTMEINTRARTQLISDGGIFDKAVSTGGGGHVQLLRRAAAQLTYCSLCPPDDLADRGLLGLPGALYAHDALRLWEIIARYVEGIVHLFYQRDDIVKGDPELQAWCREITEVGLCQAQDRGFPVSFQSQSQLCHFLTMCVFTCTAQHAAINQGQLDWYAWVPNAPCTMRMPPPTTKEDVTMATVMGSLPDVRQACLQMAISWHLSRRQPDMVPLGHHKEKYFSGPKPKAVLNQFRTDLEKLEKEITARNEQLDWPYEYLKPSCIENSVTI
# Target: Polyunsaturated fatty acid lipoxygenase ALOX12 (Homo sapiens) (UniProt P18054)
# Experiment: Primary qHTS assay for inhibitors of human arachidonate 12S-lipoxygenase (ALOX12): Round 2
# Conditions: purified 12hLO, xylenol orange hydroperoxide absorbance; activity change, negative = inhibition: at 108 µM (top of the series) unless noted
# In short: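 Hydroperoxide product was detected by ferrous iron/xylenol orange as the 573 to 405 nm absorbance ratio. Arachidonic acid at 40 uM (final) was turned over for 30 min at room temperature by 150 nM human 12hLO, pH 7.0 Hepes buffer, after 15 min compound preincubation.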
# On the % scale 0 is the no-effect control and ±100 the full control effect; potency means the concentration at half of the fitted maximal effect.
Structure (SMILES),Potency,"activity change, negative = inhibition"
COCCn1c(=O)c(-c2cc(F)cc(F)c2)nc2cnc(N3CCOCC3)nc21,"inconclusive: 1.41 µM [inhibitor, full curve, poor fit]",–
CC(C)Cn1c(-c2ccccc2)nc(=S)c2c1CCCC2,"inconclusive: 31.6 µM [inhibitor, partial curve, poor fit]",–
N#Cc1cc2c(nc1SCc1ccccc1)CCC2,–,inactive: -0.869%
CC1(C)CC(NC(=O)c2ccccn2)CC(C)(C)N1O,"inconclusive: 35.5 µM [inhibitor, partial curve, poor fit]",–
CC#CCn1cc2c3c(cccc31)[C@H](CC(C)C)N[C@H](C(=O)NC1CCCC1)C2,–,inactive: 14.3% [at 176 µM]
NC(=O)SCC(=O)Nc1ccccc1C(=O)O,–,inactive: 0.381%
Cc1ccc(NC(=O)N2CCC(CCN)CC2)cc1F,–,inactive: 42.9%
O=C(COc1ncnc2ccccc12)Nc1c(Cl)cc(Cl)cc1Cl,"inconclusive: 12.6 µM [inhibitor, partial curve, poor fit]",–
CCNC(=O)CCc1nc(-c2ccc(C(C)(C)C)cc2)no1,"inconclusive: 112 µM [inhibitor, single point]",–
O=C(C(=O)N1CCN(c2ccccc2)CC1)c1c[nH]c2ccccc12,–,inactive: -9.61%
Cc1ccc(S(=O)(=O)CNC(=S)c2cccc(Cl)c2)cc1,active: 10 µM,–
O=C1NC2(CCCCC2)NN1c1ccccc1,"inconclusive: 31.6 µM [inhibitor, partial curve]",–
CC(NC(=O)C(Cc1ccccc1)N1C(=O)C2C3CCC(C3)C2C1=O)c1ccccc1 (stereo not given),–,inactive: 1.14%
COc1cc(NC(=O)N2c3ccccc3Sc3ccccc32)cc(OC)c1,"inconclusive: 0.251 µM [inhibitor, full curve, poor fit]",–
CN(C)c1ccc(CN(C)C2CCc3ccccc32)cc1 (stereo not given),–,inactive: 37.1% [at 176 µM]
CC(C)C[C@H](NC(=O)NCC(c1ccccc1)c1ccccc1)C(=O)O,"inconclusive: 25.1 µM [inhibitor, partial curve]",–
FC(F)(F)c1cccc(CSc2cccc3cccnc23)c1,–,inactive: -3.79%
Cc1ccc(S(=O)(=O)N2CCN(C(=O)COC(=O)CNC(=O)c3ccc(Cl)cc3Cl)CC2)c(C)c1,"inconclusive: 79.4 µM [inhibitor, partial curve, poor fit]",–
O=C(CSc1nccn1-c1ccc(Cl)cc1)Nc1ccc(Cl)c(Cl)c1,"inconclusive: 39.8 µM [inhibitor, partial curve]",–
Cc1cc(=O)oc2cc(OC(C)C(=O)Nc3ccc(N4CCOCC4)cc3)ccc12 (stereo not given),"inconclusive: 44.7 µM [inhibitor, partial curve, poor fit]",–
O=C(O)C(c1c[nH]c2cc(Br)ccc12)N1CCCN(c2ccc(C(F)(F)F)cn2)CC1 (stereo not given),active: 25.1 µM,–
O=C(NNC(=O)c1cccs1)Nc1cccc(Cl)c1,–,inactive: 0%
Fc1ccccc1/C=N/n1c(COc2ccccc2)n[nH]c1=S,"inconclusive: 44.7 µM [inhibitor, partial curve, poor fit]",–
COc1ccc(N2C(=O)CC(Sc3nc4ccccc4s3)C2=O)cc1 (stereo not given),–,inactive: -2.46%

Structure (SMILES),Potency,"activity change, negative = inhibition"
Cc1cccc(NC(=S)NCc2ccc3c(c2)OCO3)c1,"inconclusive: 44.7 µM [inhibitor, partial curve, poor fit]",–
CCOC(=O)c1c(N)c2cc([N+](=O)[O-])ccc2n1C,–,inactive: 62.3%
COc1ccc(C2C(C#N)=C(SC)NC3=C2C(=O)CC(C)(C)C3)cc1 (stereo not given),"inconclusive: 44.7 µM [inhibitor, single point]",–
O=C(Nc1cccc(S(=O)(=O)N2CCCC2)c1)c1nn(-c2ccccc2)c(=O)c2ccccc12,–,inactive: -19.8%
CCOCCCNC(=O)C1CCCC(C(=O)NCCCOCC)C1 (stereo not given),–,inactive: -9.36%
Cc1noc(Cn2cnc3ccc(Br)cc3c2=O)n1,–,inactive: -1.45%
CCNC(=O)CN1CCN(C(C(=O)O)c2c[nH]c3ccc(OCc4ccccc4)cc23)CC1 (stereo not given),"inconclusive: 50.1 µM [inhibitor, partial curve, poor fit]",–
CCCCC(CC(O)COCCC)C(=O)NN (stereo not given),–,inactive: 4.64%
Cc1ccc(S(=O)(=O)Nn2c(C)ccc2C)cc1,"inconclusive: 35.5 µM [inhibitor, partial curve, poor fit]",–
Cc1ccc(-c2nn(-c3ccccc3)cc2/C=C2\SC(=S)N(CCCCCC(=O)O)C2=O)o1,active: 31.6 µM,–
CN1CCc2c(sc(NC(=O)CSc3ccccc3)c2-c2nc3ccccc3s2)C1,–,inactive: -18.1%
C=CCOc1ccc(C2/C(=C(\O)c3ccc(F)cc3)C(=O)C(=O)N2CCCN(C)C)cc1 (stereo not given),"inconclusive: 39.8 µM [inhibitor, partial curve, poor fit]",–
Cn1c(Cl)nc2c1c(=O)n(Cc1ccc(Cl)cc1Cl)c(=O)n2C,"inconclusive: 31.6 µM [inhibitor, partial curve, poor fit]",–
Cc1cccc(C)c1NC(=S)N(Cc1ccccc1)Cc1cccs1,"inconclusive: 70.8 µM [inhibitor, partial curve, poor fit]",–
O=C(CCC1NC(=O)c2ccccc2NC1=O)NCCC(c1ccccc1)c1ccccc1 (stereo not given),"inconclusive: 70.8 µM [inhibitor, single point]",–
O=C(/C=C\c1ccccc1)Nc1nccs1,–,inactive: -23.9%
CC(=O)NC1(C)CCCN(Cc2cccc(-c3c(C)noc3C)c2)C1 (stereo not given),active: 39.8 µM,–
Cc1ccc(-n2nc(C(=O)N3CCN(C)CC3)c3c4ccccc4n(C)c3c2=O)cc1,–,inactive: 0%
FC(F)(F)c1cc(Oc2ccc(Cl)cc2)nc(-c2ccccn2)n1,–,inactive: -1.97%
Cc1ccc(C(CCNCc2ccc(F)cc2)c2ccco2)cc1 (stereo not given),"inconclusive: 44.7 µM [inhibitor, partial curve, poor fit]",–
CCCn1c(=N)n(CC(=O)c2cccs2)c2ccccc21,–,inactive: 15.6%
N#C/C(=N\Nc1ccc(Br)cc1)C(=N)N1CCOCC1,"inconclusive: 35.5 µM [inhibitor, partial curve, poor fit]",–
O=C(c1cnn(-c2cccc(F)c2)c1)c1ccccc1O,"inconclusive: 44.7 µM [inhibitor, partial curve, poor fit]",–
CCc1nc(C)ccc1OCC(=O)N(CC)CC,"inconclusive: 0.251 µM [inhibitor, full curve, poor fit]",–

Structure (SMILES),Potency,"activity change, negative = inhibition"
Cc1ccc(/C=C2\SC(=S)N(C3CCS(=O)(=O)C3)C2=O)o1 (stereo not given),"inconclusive: 44.7 µM [inhibitor, partial curve]",–
Cc1ccc(Nc2nc(CSc3nnc(-c4ccncc4)n3C)cs2)cc1,–,inactive: 2.74%
CN(C)S(=O)(=O)c1ccc(-c2csnn2)s1,"inconclusive: 158 µM [inhibitor, partial curve, poor fit]",–
Cc1ccc(S(=O)(=O)Nc2cccc(C(=O)NCC(c3ccccc3)N(C)C)c2)cc1F (stereo not given),"inconclusive: 56.2 µM [inhibitor, partial curve, poor fit]",–
Cc1noc(C)c1C(=O)N1CCC2(CC1)CN(Cc1cc(C(F)(F)F)cc(C(F)(F)F)c1)C2,–,inactive: -3.15% [at 57.4 µM]
CCOc1ccccc1NC=C1C(=O)OC(C)(C)OC1=O,–,inactive: -8.18%
Fc1ccc(CNC(=S)NCc2cccc(Cl)c2)cc1,"inconclusive: 44.7 µM [inhibitor, partial curve, poor fit]",–
CC(C)(C)OC(=O)N1CCC(c2c(C(=O)NC3CCN(Cc4ccccc4)CC3)cnn2-c2ccc(F)cc2F)CC1,"inconclusive: 50.1 µM [inhibitor, partial curve, poor fit]",–
O=C1c2ccccc2C(Nc2ccc(S(=O)(=O)N3CCOCC3)cc2)N1c1cccnc1 (stereo not given),–,inactive: 29.9%
CCCOc1ccc(C(=O)OCCN(CC)CC)cc1N,"inconclusive: 31.6 µM [inhibitor, single point]",–
COc1cccc(CNC(=O)c2ccccc2SCC(=O)N2CCCC2)c1,"inconclusive: 31.6 µM [inhibitor, partial curve, poor fit]",–
O=C(CC(c1ccccc1)c1ccccc1)Oc1cc(Cl)ccc1Cl,"inconclusive: 44.7 µM [inhibitor, partial curve, poor fit]",–
Clc1ccccc1CN1CCC(Cc2ccccc2)CC1,"inconclusive: 5.01 µM [inhibitor, full curve]",–
CCOc1ccc(NC(=O)C(=O)c2cc(C)n(-c3cc(C)cc(C)c3)c2C)cc1,"inconclusive: 126 µM [inhibitor, partial curve, poor fit]",–
O=c1c(-c2cccs2)nc2ccccc2n1C(CCc1ccccc1)c1nc2ccccc2[nH]1 (stereo not given),–,inconclusive: -37.9% [inhibitor]
CC1=CC(C)(C)Nc2ccc(Cc3ccc4c(c3)C(C)=CC(C)(C)N4)cc21,"inconclusive: 31.6 µM [inhibitor, partial curve, poor fit]",–
Cc1cc(C)cc(-n2ncc3c(=O)n(CC(O)COc4ccc(F)cc4)cnc32)c1 (stereo not given),–,inactive: -5.15%
C=C1C[C@@H]2C[C@@H]2CN(S(=O)(=O)c2ccc(C)cc2)[C@@H]1c1ccco1,"inconclusive: 39.8 µM [inhibitor, partial curve, poor fit]",–
CCN(CC)P(=O)(Nc1ccc(C)cc1Br)c1ccc(N(C)C)cc1NC(=O)c1ccco1 (stereo not given),"inconclusive: 50.1 µM [inhibitor, partial curve, poor fit]",–
CN(C)C(=O)N1CCc2nc(C3CC3)nc(-c3ccc(Cl)cc3)c2C1,"inconclusive: 126 µM [inhibitor, single point]",–
CCC(=O)N1CCc2cc(S(=O)(=O)CCC(=O)N3CCN(c4ccc(Cl)cc4)CC3)ccc21,inactive,–
COc1ccc(NC(=O)c2c(NCc3sccc3C)sc3c2CCCC3)c(OC)c1,"inconclusive: 79.4 µM [inhibitor, partial curve, poor fit]",–

# Gathered by group: those above containing bromine
Structure (SMILES),Potency,"activity change, negative = inhibition"
O=C(O)C(c1c[nH]c2cc(Br)ccc12)N1CCCN(c2ccc(C(F)(F)F)cn2)CC1 (stereo not given),active: 25.1 µM,–
Cc1noc(Cn2cnc3ccc(Br)cc3c2=O)n1,–,inactive: -1.45%
N#C/C(=N\Nc1ccc(Br)cc1)C(=N)N1CCOCC1,"inconclusive: 35.5 µM [inhibitor, partial curve, poor fit]",–
CCN(CC)P(=O)(Nc1ccc(C)cc1Br)c1ccc(N(C)C)cc1NC(=O)c1ccco1 (stereo not given),"inconclusive: 50.1 µM [inhibitor, partial curve, poor fit]",–

# As entered above:
# Value of O=C1c2ccccc2C(Nc2ccc(S(=O)(=O)N3CCOCC3)cc2)N1c1cccnc1 (stereo not given) under activity change, negative = inhibition: inactive: 29.9%
# Value of Cc1ccc(/C=C2\SC(=S)N(C3CCS(=O)(=O)C3)C2=O)o1 (stereo not given) under Potency: inconclusive: 44.7 µM [inhibitor, partial curve]
